Article PMC10307831, “GATA zinc finger protein p66β promotes breast cancer cell migration by acting as a co-activator of Snail”

Protein sequences, listed by entry. Tags and fused reporters are not part of them. Lines headed by an entry give the natural chain unless they say otherwise; changes in a name come on top.
UniProt O95863: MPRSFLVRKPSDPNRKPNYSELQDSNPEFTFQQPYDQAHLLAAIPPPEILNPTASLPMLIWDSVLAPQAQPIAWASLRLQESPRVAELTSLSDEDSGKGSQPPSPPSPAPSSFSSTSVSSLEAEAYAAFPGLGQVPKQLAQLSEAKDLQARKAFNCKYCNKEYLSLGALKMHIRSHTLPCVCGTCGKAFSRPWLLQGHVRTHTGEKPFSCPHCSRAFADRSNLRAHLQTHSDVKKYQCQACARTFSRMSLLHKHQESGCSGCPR

Tests used:
[1] = molecular target: GST-Snail-NT (UniProt O95863); assay: pull-down; settings: Pull-down: NeutrAvidin beads, 8 h 4 C, washed in IP buffer (50 mM Tris pH 7.5, 150 mM NaCl, 1% Triton X-100); recombinant protein; protein details: N-terminal GST
[2] = molecular target: GST-Snail-CT (UniProt O95863); assay: pull-down; settings: Pull-down: NeutrAvidin beads, 8 h 4 C, washed in IP buffer (50 mM Tris pH 7.5, 150 mM NaCl, 1% Triton X-100); recombinant protein; protein details: N-terminal GST

Does “GGCCCCCTCCTCCCATCCGCG (double strand) [COL6A2-G-box-WT]” bind [1]?
Result: no binding

Does “GGCCCCCTCCTCCCATCCGCG (double strand) [COL6A2-G-box-WT]” bind [2]?
Result: binds

Construct, isoform or probe ends are uncertain for at least one entry. For some assays here: Negatives hold for the conditions tested.
